These are yes or no findings as the source states them, for the method shown. In cells and extracts the contact can be indirect. These calls come from enrichment with a bait or labelling near it, and not all partners need be listed.
Target: T1, endogenous RBM38 (not stated (endogenous, cell line not named)) (UniProt Q9H0Z9)
T1 sequence: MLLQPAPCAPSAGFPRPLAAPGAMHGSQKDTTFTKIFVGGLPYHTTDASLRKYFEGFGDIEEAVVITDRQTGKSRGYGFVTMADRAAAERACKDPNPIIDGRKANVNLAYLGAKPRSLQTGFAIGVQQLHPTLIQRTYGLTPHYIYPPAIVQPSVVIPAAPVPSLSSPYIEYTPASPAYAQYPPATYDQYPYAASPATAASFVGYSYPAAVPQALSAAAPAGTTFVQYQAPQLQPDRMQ
Assay: affinity purification with mass spectrometry

Chains of the proteins cited; added tags and fusions are not shown.
UniProt O60573: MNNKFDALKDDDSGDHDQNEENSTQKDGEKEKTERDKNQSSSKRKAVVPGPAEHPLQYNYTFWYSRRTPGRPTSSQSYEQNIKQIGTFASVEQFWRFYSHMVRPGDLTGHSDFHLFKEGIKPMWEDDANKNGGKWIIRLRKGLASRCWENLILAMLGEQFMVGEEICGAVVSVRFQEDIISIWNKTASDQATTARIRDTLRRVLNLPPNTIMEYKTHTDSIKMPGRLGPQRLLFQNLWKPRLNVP

binding: binds
Substance: endogenous eIF4E2 (from UniProt O60573 1-245)
